Results published in the supplement of paper PMC3334620.
Whole data set: some 33,000 sequences, median “E-score (-0.5 to 0.5)” near -0.0034, cut for the highest 2% near 0.25. Some of the results follow.

Target: T1, Yap3 (UniProt P38749)
T1 sequence: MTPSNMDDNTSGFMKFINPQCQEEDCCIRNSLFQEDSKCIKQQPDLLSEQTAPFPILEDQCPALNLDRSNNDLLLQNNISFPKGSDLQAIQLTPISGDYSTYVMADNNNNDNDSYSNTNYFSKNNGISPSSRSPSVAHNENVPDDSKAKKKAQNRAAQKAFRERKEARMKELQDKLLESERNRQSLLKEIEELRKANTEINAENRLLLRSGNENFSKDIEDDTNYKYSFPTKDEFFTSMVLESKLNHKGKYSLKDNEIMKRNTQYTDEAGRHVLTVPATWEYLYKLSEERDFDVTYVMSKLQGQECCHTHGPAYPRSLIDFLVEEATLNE
Test: PBM E-score (8-mer binding enrichment) (E-score (-0.5 to 0.5)); higher = stronger / more preferred TF binding
Conditions: protein concentration: 100 nM; construct: GST-full length
Summary of the method: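 Each ungapped eight-base word and its reverse complement, pooled, received an E-score from the Universal PBM Analysis Suite. Underlying scans, normalised with masliner, recorded fluorescent anti-GST bound to GST-tagged yeast transcription factors. These were applied at about 100-200 nM to universal all-10-mer Agilent arrays double-stranded by primer extension.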

| Sequence | PBM E-score |
| --- | --- |
| CATAGACG | 0.0717 |
| GATACACC | 0.161 |
| AGGCCGGA | -0.139 |
| CTCGGATA | 0.158 |
| GCTTAAGC | -0.066 |
| TAGACCTA | -0.128 |
| CGTCAAGA | -0.1 |
| GCGCGAGA | 0.124 |
| CTTCTTTC | 0.027 |
| ATGGGGTC | -0.233 |
| TGAGGTAA | 0.067 |
| CGTAAACC | -0.00624 |
| GACTTATC | -0.047 |
| CACTTGAC | -0.0554 |
| AGCTACTA | 0.0917 |
| GCCCCGGC | -0.319 |
| AAGAGCCG | -0.0966 |
| GGGCACGA | -0.131 |
| CGGTCCAC | -0.282 |
| GCCGCGAC | -0.148 |
| AATCATCG | -0.00013 |
| GGGCGACA | -0.182 |
| GAGGAATA | 0.135 |
| ATCCCGAG | 0.103 |
| ATTAGGCC | 0.047 |

Given with bars between the fields: part of the list above
Sequence | PBM E-score
TAGACCTA | -0.128
CGTCAAGA | -0.1

Further entries

| Sequence | PBM E-score |
| --- | --- |
| CATGTTAA | 0.188 |
| ACCAGTCC | -0.186 |
| ACTTTTTG | 0.141 |
| GTACTACA | 0.173 |
| TAGAATGA | 0.125 |
| ATCGGAGG | -0.0686 |
| ACATGCGG | -0.00632 |
| AGTGGAGG | -0.0981 |
| GCTATGCA | -0.196 |
| CTAGAGCA | -0.126 |
| ATCTACTC | 0.0794 |
| ACGCCGTG | -0.112 |
| ACTGTAAT | 0.201 |
| GTACAGGA | 0.0424 |
| ATTCTCAC | 0.141 |
| CGGTTGAA | 0.184 |
| AGAGACGC | 0.0051 |
| ATGTGACA | 0.0927 |
| CGTAGGTA | -0.111 |
| CCCAATCA | 0.0162 |
| GCCTTGTA | -0.0764 |
| CTATCGCA | -0.036 |
| CTGTGCTA | -0.186 |
| GAGCCACA | -0.104 |
| CGCCAAAG | -0.11 |

Fetched one by one from above, seven records:

| Sequence | PBM E-score |
| --- | --- |
| GGGCGACA | -0.182 |
| CTTCTTTC | 0.027 |
| CATGTTAA | 0.188 |
| CTGTGCTA | -0.186 |
| ATCCCGAG | 0.103 |
| CGGTCCAC | -0.282 |
| ACTGTAAT | 0.201 |

3 entries from above, reformatted:
Sequence	PBM E-score
ACCAGTCC	-0.186
ACTTTTTG	0.141
GTACTACA	0.173

(next part)

| Sequence | PBM E-score |
| --- | --- |
| ATAGATTG | 0.119 |
| AAACTCAC | -0.0485 |
| ACGACTGC | -0.0752 |
| AGATCCAA | -0.13 |
| CGAATACC | 0.00264 |
| AGAACTAG | -0.117 |
| TCGCGCGA | 0.138 |
| TAACGTTA | 0.19 |
| ATTGATCC | 0.0152 |
| AGGCCGGG | -0.308 |
| AGATCTCC | -0.0529 |
| CGCAGAAG | -0.0447 |
| ATACCGGA | 0.0214 |
| GGGTCGAA | -0.277 |
| CAAGTGCG | -0.0461 |
| ATGTGCCG | -0.121 |
| GTGGCAGA | -0.173 |
| ATAAGAGG | 0.112 |
| ACAAGAAG | 0.143 |
| ACCTGTAG | -0.0988 |
| CATCCCGG | -0.147 |
| CGAAATTA | 0.181 |
| GAACATGA | 0.139 |
| CCGCTTAC | 0.0416 |
| AACCCTGA | 0.146 |

| Sequence | PBM E-score |
| --- | --- |
| TACAAACA | 0.206 |
| TTGCCAAA | -0.0116 |
| CCCTCGCC | -0.179 |
| CATGCCTA | -0.0966 |
| ATCGATTG | 0.177 |
| AACGCCAG | 0.0892 |
| GCAAGGGC | -0.142 |
| CTTATGCC | 0.0004 |
| CACGCGCG | -0.0466 |
| CCGGCACC | -0.205 |
| GCGTAGGA | -0.0348 |
| CTGAACAC | 0.205 |
| AGCCATCC | -0.193 |
| AGGCCGTC | -0.263 |
| GAGTACCC | -0.135 |
| CGCCCAGC | -0.234 |
| AGCTGGGA | -0.0381 |
| CACAGCCA | -0.123 |
| ATCCGAGA | 0.22 |
| CACGACCA | -0.0289 |
| CTACCTGC | -0.1 |
| AGGTATAG | 0.0398 |
| AGTAGCGG | 0.0175 |
| GAATGCCA | -0.0609 |
| CGAAACGC | -0.124 |

| Sequence | PBM E-score |
| --- | --- |
| CCGATCTA | -0.115 |
| ACAGTGGT | -0.0202 |
| GGCGGGGA | 0.233 |
| ACAGACAG | 0.0669 |
| ACCAGTGG | -0.129 |
| ACTGTCGA | -0.0539 |
| GACGTCGA | 0.0993 |
| GGCCTAAA | -0.112 |
| ATCCTTTC | 0.0424 |
| AACGGCCA | -0.0772 |
| CACTGGTC | -0.137 |
| AAAACTTT | 0.0631 |
| AAATGACC | 0.0722 |
| GCAACGCC | -0.247 |
| ATATTAAG | 0.0834 |
| AGTTGCTC | -0.104 |
| ACACGCGT | 0.112 |
| CGGTTACC | -0.159 |
| GCGTCAAA | 0.0706 |
| GAAGGCAC | -0.128 |
| GGCAGCCC | -0.322 |
| CCATGTCA | -0.0941 |
| CTTAGTGC | -0.0295 |
| GGGGACAC | -0.315 |
| CCTTGGAC | -0.216 |

| Sequence | PBM E-score |
| --- | --- |
| AGCAAGCG | -0.0215 |
| AGCCGGAG | 0.00421 |
| AGGATCGA | -0.09 |
| ACAGGCAT | -0.0533 |
| GTATACAC | -0.0686 |
| CCTGAACC | -0.0771 |
| AAGCCTAC | -0.0223 |
| AGGAGGAT | -0.0704 |
| GGGGGTGA | -0.178 |
| AACCCACT | 0.176 |
| CACCGGGC | -0.34 |
| CTTGGAAA | 0.0251 |
| GTTAAAAA | 0.225 |
| ATCAATTC | -0.0493 |
| CCCGCTTC | -0.117 |
| CCAGCGAG | -0.0495 |
| ACCAGCCT | -0.157 |
| GCTTGTCC | -0.103 |
| GTTGCGCA | -0.0198 |
| ATTCCGTC | 0.019 |
| GTGTCCGA | -0.0129 |
| AAGACCTT | 0.0295 |
| TGTCCAAA | 0.0292 |
| CGAAATCC | 0.108 |
| TGGAGTAA | 0.205 |

| Sequence | PBM E-score |
| --- | --- |
| CCCAGGGA | -0.402 |
| ATATTTTA | 0.273 |
| TCTTGCAA | 0.011 |
| CGAGTATA | 0.209 |
| ACATATGC | -0.195 |
| CGCTAACA | 0.118 |
| AGCACTGA | -0.00441 |
| ACGTTATC | 0.0137 |
| AGACCGAC | 0.0381 |
| GCCACCGA | -0.255 |
| ATCCTGAC | 0.121 |
| AACAGCCT | -0.0849 |
| CCATGTCG | -0.0289 |
| AGCTTCCG | -0.102 |
| CGAATTAA | 0.0999 |
| AAACGTGC | -0.0428 |
| ATGGCGTC | -0.0542 |
| AAGTATAT | 0.135 |
| ACTTGCGA | 0.0575 |
| ACAAGCCC | -0.236 |
| CCGGACCA | -0.247 |
| ACCCCATC | -0.157 |
